Binding data for three molecules are collected here from article PMC8197518.

Amino acid sequences for entries named in this document (tags omitted).
UniProt Q01860: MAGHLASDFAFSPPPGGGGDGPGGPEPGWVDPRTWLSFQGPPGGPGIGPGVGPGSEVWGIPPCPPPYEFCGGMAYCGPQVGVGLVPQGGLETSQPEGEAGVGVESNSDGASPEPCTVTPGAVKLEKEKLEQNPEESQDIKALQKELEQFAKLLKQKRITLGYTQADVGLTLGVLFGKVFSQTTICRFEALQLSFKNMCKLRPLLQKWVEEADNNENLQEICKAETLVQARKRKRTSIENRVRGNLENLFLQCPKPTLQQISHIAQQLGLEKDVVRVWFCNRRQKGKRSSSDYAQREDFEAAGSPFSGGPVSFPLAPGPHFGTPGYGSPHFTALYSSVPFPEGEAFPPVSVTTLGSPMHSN

No constants are given. Whether binding was seen depends on the method and setting. In cells and extracts the contact can be indirect. Some binding calls cover weakened binding; strength is not graded here. For some of these results: Sequences can lack the tags named with a protein.

Assay [1] has as its target T1, endogenous USP3 (ubiquitin-specific protease 3) (human (endogenous in NCCIT and hiPSCs)) (UniProt Q9Y6I4).
T1 sequence: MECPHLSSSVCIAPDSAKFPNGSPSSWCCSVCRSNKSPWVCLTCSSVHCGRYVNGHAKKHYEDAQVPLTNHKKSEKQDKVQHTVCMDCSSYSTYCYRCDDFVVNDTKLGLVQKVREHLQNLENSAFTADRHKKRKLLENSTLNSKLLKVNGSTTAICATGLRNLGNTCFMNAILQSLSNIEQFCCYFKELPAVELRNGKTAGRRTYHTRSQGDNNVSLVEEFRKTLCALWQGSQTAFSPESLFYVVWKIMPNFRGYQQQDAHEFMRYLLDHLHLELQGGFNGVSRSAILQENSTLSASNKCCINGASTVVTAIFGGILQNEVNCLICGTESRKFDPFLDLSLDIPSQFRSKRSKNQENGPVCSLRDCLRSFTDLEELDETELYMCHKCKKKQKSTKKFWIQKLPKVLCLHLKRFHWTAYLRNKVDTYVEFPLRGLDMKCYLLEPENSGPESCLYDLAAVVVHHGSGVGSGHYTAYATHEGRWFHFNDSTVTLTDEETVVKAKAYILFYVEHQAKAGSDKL
The experiment in a line: co-IP; endogenous proteins, NCCIT cells; RIPA lysate; IP with anti-USP3 antibody at 4 °C overnight, Protein A/G Plus Agarose beads; blot with anti-Oct4.

Assay [2] concerns the target T1, endogenous USP3 (ubiquitin-specific protease 3) (human (endogenous in NCCIT and hiPSCs)). Nature of the assay: co-IP; endogenous proteins, human iPSCs; RIPA lysate; IP with anti-USP3 antibody at 4 °C overnight, Protein A/G Plus Agarose beads; blot with anti-Oct4.
For assay [3], the target named is T2, Flag-USP3 (ubiquitin-specific protease 3) (human) (UniProt Q9Y6I4).
T2 sequence: T1 sequence
Nature of the assay: co-IP; Flag-USP3 and Myc-Oct4 co-transfected into HEK293 cells; RIPA lysate; IP with anti-Flag or anti-Myc antibody at 4 °C overnight, Protein A/G Plus Agarose beads; blot with the reciprocal antibody.

Assay [4] concerns the target Myc-Oct4 (octamer-binding factor 4) (UniProt Q01860). The assay is described as above.

For the molecule “endogenous Oct4 (octamer-binding factor 4) (from UniProt Q01860 1-360)”, the binding result in assay [1] and in assay [2] was “binds” each time. In the case of “Myc-Oct4 (octamer-binding factor 4) (from UniProt Q01860 1-360)”, in assay [3], the binding entry was “binds”.

B1: Flag-USP3 (ubiquitin-specific protease 3) (enzyme, UniProt Q9Y6I4 1-520)
chain: T1 sequence
As for B1, the binding entry in assay [4] is “binds”.
